Measured values published in paper PMC4338318.
These are yes or no findings as the source states them, for the method shown. Binding seen in cells or lysates may run through a third protein. For part of these data: Binding can be weak; no strength is given. Where a sequence is shown, tags or fusion partners need not be part of it. Values belong to the binder of their own block, whether it stands above or below them.

Protein sequences, listed by entry. Tags and fused reporters are not part of them. Lines headed by an entry give the natural chain unless they say otherwise; changes in a name come on top.
UniProt Q96G97: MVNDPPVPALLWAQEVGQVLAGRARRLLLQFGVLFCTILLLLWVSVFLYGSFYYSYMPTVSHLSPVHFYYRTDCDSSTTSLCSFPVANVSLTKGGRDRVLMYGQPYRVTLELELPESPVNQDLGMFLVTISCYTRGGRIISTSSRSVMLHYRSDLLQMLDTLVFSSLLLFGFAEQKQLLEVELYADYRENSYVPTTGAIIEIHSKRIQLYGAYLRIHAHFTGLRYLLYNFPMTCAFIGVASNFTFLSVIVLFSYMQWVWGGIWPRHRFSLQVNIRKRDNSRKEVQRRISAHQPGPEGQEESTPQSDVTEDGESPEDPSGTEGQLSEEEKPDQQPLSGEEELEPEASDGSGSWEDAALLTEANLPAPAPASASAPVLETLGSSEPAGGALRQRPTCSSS

Columns and labels:
[1] = target: FLAG-seipin, long translation (additional 64 amino acids at the N terminus) (human); assay: co-IP; HEK293 cells co-transfected; ODG lysis buffer (50 mM ODG, 50 mM Tris pH 6.8, 150 mM NaCl, 1 mM EDTA); anti-FLAG agarose 2 h at 4 °C; elution with 3xFLAG peptide; immunoblot
[2] = target: Yn-seipin (N-terminal fragment of YFP fused to the N terminus of seipin) (human) (UniProt Q96G97); assay: split reporter; BiFC with halves of YFP in co-transfected HEK293 cells; 37 °C 4 h, 32 °C 20 h, 30 °C 2 h; fixed cells
[3] = target: FLAG-seipin-Yn (N-terminal fragment of YFP fused to the C terminus of seipin) (human) (UniProt Q96G97); assay: as above
[4] = target: FLAG-seipin-Yn (N-terminal fragment of YFP fused to the C terminus of seipin) (human) (UniProt Q96G97); assay: split reporter; BiFC with halves of YFP in 3T3-L1 preadipocytes induced to differentiate and co-transfected; temperature shift; fixed at day 3 of differentiation

binding [1]: binds
B1: AGPAT2-Myc (Myc-tagged human 1-acylglycerol-3-phosphate O-acyltransferase 2) (enzyme, UniProt O15120 24-278)
chain: AEFYAKVALYCALCFTVSAVASLVCLLRHGGRTVENMSIIGWFVRSFKYFYGLRFEVRDPRRLQEARPCVIVSNHQSILDMMGLMEVLPERCVQIAKRELLFLGPVGLIMYLGGVFFINRQRSSTAMTVMADLGERMVRENLKVWIYPEGTRNDNGDLLPFKKGAFYLAVQAQVPIVPVVYSSFSSFYNTKKKFFTSGTVTVQVLEAIPTSGLTAADVPALVDTCHRAMRTTFLHISKTPQENGATAGSGVQPAQ

binding [2]: no binding
binding [3]: no binding
B2: Yc-myc-AGPAT2 (C-terminal fragment of YFP fused to the N terminus of AGPAT2-Myc) (enzyme, UniProt O15120 24-278)
chain: B1 chain

binding [4]: binds
binding [2]: no binding
binding [3]: binds
B3: Myc-AGPAT2-Yc (C-terminal fragment of YFP fused to the C terminus of AGPAT2-Myc) (enzyme, UniProt O15120 24-278)
chain: B1 chain
